Assay results taken from patent US11820782B2, “Salt forms of amino pyrazine purine based selective kinase inhibitor” (FTG BIO LLC, priority 2018, dated 2023).
Some entries share one result that the patent states for a list of compounds.

Tested on: MDA-MB-231 (breast cancer)
Assay: Anti-proliferative effect, MDA-MB-231
Type: cell-based
Description: All in vitro experiments like protein binding, microsomal stability, cell cytotoxicity were performed as per study protocols of respective experiments.

`CCC(CC)n1cnc2c(-c3cnc(N)cn3)nc(N3CC4CCC(C3)O4)nc21` [FT-1518-Esylate] showed an IC50 of over 10 µM.
